Experimental findings from patent US20250115953, “Methylcytosine-Selective Deaminases and Uses Thereof” (New England Biolabs, Inc., published 2025) are described below.

For some of these results: A negative result means that nothing was seen under these conditions. For some of these results: Tags and fusion partners may be left off the protein sequences shown. For some of these results: For at least one entry, the source does not settle the construct or the ends of the probe.

In series [1] the test system is T1, B5 deaminase.
T1 sequence: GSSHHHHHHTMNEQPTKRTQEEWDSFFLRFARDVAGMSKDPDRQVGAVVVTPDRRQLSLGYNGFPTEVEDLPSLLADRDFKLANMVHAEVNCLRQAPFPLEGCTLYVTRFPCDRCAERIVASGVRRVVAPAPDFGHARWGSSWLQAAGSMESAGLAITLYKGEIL
Description: binding assay. To be noted: 5mC at one CpG; 42 C 1 h, enzyme:substrate 40:1; C to T linear with methylated fraction; purified recombinant protein; protein details: N-terminal His6 (pET28), E. coli C2566.

The test system of series [2] is B4 deaminase. Description: activity assay. The following applies: not detected; purified recombinant protein; protein details: immobilized on solid support; label: 5'-FAM; single-stranded DNA; variant of FAM 5mC oligo 1.
Series [3] relates to T2, E12 deaminase.
T2 sequence (limits assumed): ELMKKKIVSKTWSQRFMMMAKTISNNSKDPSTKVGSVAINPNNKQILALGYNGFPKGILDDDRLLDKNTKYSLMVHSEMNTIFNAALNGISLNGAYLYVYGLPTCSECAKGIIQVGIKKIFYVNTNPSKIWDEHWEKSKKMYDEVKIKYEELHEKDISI
Description: activity assay. To be noted: not detected; purified recombinant protein; protein details: immobilized on solid support; label: 5'-FAM; single-stranded DNA; variant of FAM 5mC oligo 1.

The test system of series [4] is T3, F12 deaminase.
T3 sequence (limits assumed): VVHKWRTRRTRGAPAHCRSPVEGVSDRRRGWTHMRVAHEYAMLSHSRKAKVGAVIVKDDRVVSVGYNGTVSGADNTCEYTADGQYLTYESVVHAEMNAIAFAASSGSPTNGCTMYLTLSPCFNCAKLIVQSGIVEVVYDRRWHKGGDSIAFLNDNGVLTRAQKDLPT
Description: activity assay. To be noted: not detected; purified recombinant protein; protein details: immobilized on solid support; label: 5'-FAM; single-stranded DNA; variant of FAM 5mC oligo 1.

The subject of series [5] is T4, H2 deaminase.
T4 sequence (limits assumed): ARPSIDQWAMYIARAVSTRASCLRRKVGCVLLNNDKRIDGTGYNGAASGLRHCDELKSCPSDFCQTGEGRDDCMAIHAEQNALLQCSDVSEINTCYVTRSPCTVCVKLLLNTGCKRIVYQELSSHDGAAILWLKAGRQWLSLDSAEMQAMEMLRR
Description: activity assay. The following applies: not detected; purified recombinant protein; protein details: immobilized on solid support; label: 5'-FAM; single-stranded DNA; variant of FAM 5mC oligo 1.

Series [6] relates to T5, PRW294.
T5 sequence: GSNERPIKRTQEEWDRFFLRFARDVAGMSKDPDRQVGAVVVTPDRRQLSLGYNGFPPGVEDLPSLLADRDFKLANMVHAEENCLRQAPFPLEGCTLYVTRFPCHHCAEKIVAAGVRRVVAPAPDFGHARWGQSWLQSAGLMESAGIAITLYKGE
The series is described as follows: activity assay. To be noted: 1 h; purified recombinant protein; label: 5'-FAM; single-stranded DNA; variant of FAM 5mC oligo 1.

For series [7], the system named is T6, PRW311.
T6 sequence: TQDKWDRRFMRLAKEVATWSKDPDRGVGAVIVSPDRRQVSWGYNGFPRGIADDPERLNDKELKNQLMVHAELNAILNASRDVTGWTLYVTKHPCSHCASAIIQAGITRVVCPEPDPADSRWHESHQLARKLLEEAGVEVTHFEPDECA
The series is described as follows: activity assay. To be noted: 1 h; purified recombinant protein; label: 5'-FAM; single-stranded DNA; variant of FAM 5mC oligo 1.

Turning to “GGACACAGGGGTTGCCCAGGCTACAGATCCGGGTTCAGGCCCAGCCGTGGGGACTGTTCACCTCTGAGAGGGCAGCCCTGCCCCGCGGCCCTGGCCCTGCCCTGCACCCGGCTGGGTCTCATCTGACACGC (double strand) [F1/R1 methylated CpG]”, the binding result in series [1] was “binds”.

Turning to “ATACACCGATGCAGAACTCATGGGCTTACGC [FAM C oligo 4]”, the “activity on this sequence” value in series [2], in series [3], in series [4] and in series [5] was “not active” each time. The activity on this sequence (% deamination) in series [6] and in series [7] was less than 1 each time.
